Source: PubChem BioAssay AID445 (National Center for Advancing Translational Sciences (NCATS), 2006)
“And” between values parts separate entries of the source, which are not always exact repeats. Equal entries are not always repeated. The list shows a part of the results. Shown are side measurements of this screen, not its main read-out; they come without a call. The list favours compounds with an active or inconclusive main result. Potencies come from curve fits of mixed quality, noted in brackets.

Assay: IkB Signaling
Settings: ABC-DLBCL IkBa-CBG/CBR dual luciferase ratio (green luciferase fused to IkBa over red control in OCI-Ly3 lymphoma cells), 4 h
Method in brief: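 Curves were fitted separately to fusion (green), unfused (red) and ratio luminescence, then classed by r2, magnitude and activity. Cells: OCI-Ly3, 4 h compound plus doxycycline at 37C; 10 uM MG-132 defined full response.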

[1] = measured here: control luc red channel
[2] = measured here: IkB-luc green channel

| SMILES | AC50 [1] | AC50 [2] |
| --- | --- | --- |
| COc1cc(C(c2c(O)c3ccccc3oc2=O)c2c(C)n(C)n(-c3ccccc3)c2=O)ccc1O (configuration not stated) | 2.51 µM [falling, full curve] |  |
| O=c1c2ccccc2nc(/C=C/c2ccccc2)n1-c1ccccc1F | 31.6 µM [falling, partial curve] |  |
| Cc1cccc(N2CCc3c2nc2ccccc2c3N)c1 | 39.8 µM [falling, single point] |  |
| C=CCN1C[C@H](C)N([C@H](c2ccc(C(=O)N(CC)CC)cc2)c2cccc(OC)c2)C[C@H]1C | 3.16 µM [rising, full curve, poor fit] |  |
| O=C1CC(c2ccc(F)cc2)c2c(c3ccccc3oc2=O)O1 (configuration not stated) | 10 µM [falling, partial curve] |  |
| COc1ccc(CCNCc2ccc3c(c2)n(C)c(=O)n3C)cc1 | 20 µM [rising, partial curve] |  |
| CCOc1ccc(NC(=O)c2cccn(Cc3cccc(Cl)c3)c2=O)cc1 | 0.316 µM [rising, partial curve] |  |
| Cc1oc(-c2ccccc2Cl)nc1CN1C(=O)CN=C(c2ccccc2)c2cc(Cl)ccc21 | 10 µM [falling, partial curve] |  |
| N#Cc1cccc(NC(=O)c2sc3nc4c(cc3c2N)N2CCC4CC2)c1 | 20 µM [falling, partial curve] |  |
| COc1ccc(NC(=O)CCc2nc(C3=CCN(Cc4cccc(Cl)c4)CC3)no2)cc1OC | 39.8 µM [falling, single point] |  |
| O=C1CC(N2CC=C(c3ccccc3)CC2)C(=O)N1c1ccc(F)cc1 (configuration not stated) | 7.94 µM [falling, partial curve] |  |
| O=C(Cn1ncc2c3ccccc3n(Cc3cccc(Cl)c3)c2c1=O)N1CCC2(CC1)OCCO2 | 20 µM [falling, partial curve] |  |
| Cc1ccc(-n2nc(C)c3c2NC(=O)CSC3c2ccc(O)cc2)cc1Cl (configuration not stated) | 10 µM [falling, partial curve] |  |
| CCCCn1c(O)c(C(CC)=NCc2ccc3c(c2)OCO3)c(=O)[nH]c1=O | 20 µM [falling, partial curve] |  |
| CN(C(=O)Cc1ccc(Cl)c(Cl)c1)[C@H](CN1CCCC1)c1ccccc1 | 39.8 µM [falling, single point] |  |
| CCCC12CN3CC(C)(CN(C1)C3c1ccccn1)C2=O (configuration not stated) | 39.8 µM [falling, single point] |  |
| CCCC1(CCC)C(=O)NC(=NCc2ccccc2)NC1=O | 25.1 µM [falling, partial curve] |  |
| COC(=O)/C=C\C(=O)N[C@@H]1CC[C@@]2(O)[C@H]3Cc4ccc(O)c5c4[C@@]2(CCN3CC2CC2)[C@@H]1O5 | 39.8 µM [falling, partial curve] |  |
| COc1ccc(NC(C)=O)cc1NC(=O)c1cccn(Cc2ccccc2)c1=O | 39.8 µM [falling, single point] |  |
| Cc1ccc(Cn2nnnc2CN2CCC(n3nnc4cc(C)ccc43)CC2)cc1 | 39.8 µM [falling, single point] |  |

| SMILES | AC50 [1] | AC50 [2] |
| --- | --- | --- |
| C[C@H]1C[C@@H](C)C(=O)[C@@H]([C@H](O)CC2CC(=O)NC(=O)C2)C1 | 0.631 µM [falling, full curve] | 0.398 µM [rising, full curve, poor fit] |
| COC(C)(C)CCCC(C)C/C=C/C(C)=C/C(=O)OC(C)C (configuration not stated) | 0.126 µM [falling, full curve] |  |
| Cc1ccccc1-n1c(/C=C/c2ccc(O)cc2)nc2ccccc2c1=O | 10 µM [falling, partial curve] |  |
| CCOC(=O)C1=C(N)Oc2c(c(=O)oc3ccccc23)C12C(=O)N(C)c1ccccc12 (configuration not stated) | 0.794 µM [falling, partial curve] |  |
| Cc1ccc(Cn2cccc(C(=O)Nc3nnc(C)s3)c2=O)cc1 | 1 µM [rising, full curve, poor fit] | 5.01 µM [rising, single point] |
| CC(C)CCOC(=O)c1c(N)n(CC2CCCO2)c2nc3ccccc3nc12 (configuration not stated) | 20 µM [falling, partial curve, poor fit] |  |
| CCN(CC)C(=O)c1ccc(NC(=O)Cn2nc(-c3ccc(C)cc3)c3ccccc3c2=O)cc1 | 20 µM [falling, single point] |  |
| CN1C[C@H](CNC(=O)OCc2ccccc2)C[C@H]2c3cccc4c3c(cn4C)C[C@@H]21 | 39.8 µM [falling, single point] |  |
| CN(C)P(=O)(C(Cl)=C(N1CCCCC1)N1CCCCC1)N(C)C | 2.51 µM [rising, full curve] |  |
| COc1ccc(C[C@@H]2NC[C@H](O)[C@H]2OC(C)=O)cc1 | 1.26 µM [falling, full curve] | 0.251 µM [rising, single point] |
| CN(CCc1ccc(Cl)c(Cl)c1)[C@H]1CCCC[C@H]1N1CCCC1 | 39.8 µM [falling, single point] |  |
| CCCCOC(=O)c1ccccc1C(=O)OCc1ccccc1 | 0.316 µM [falling, full curve] |  |
| O=C(O)CCCc1ccc(N(CCCl)CCCl)cc1 | 39.8 µM [rising, partial curve] |  |
| COc1ccc(Cn2c(N)c(C(=O)NCc3ccco3)c3nc4ccccc4nc32)cc1 |  | 25.1 µM [rising, partial curve] |
| c1ccc2c(c1)OC[C@@H](C1=NCCN1)O2 | 31.6 µM [falling, partial curve] | 5.01 µM [rising, full curve] |
| [CH3][Hg][Cl] | 1 µM [rising, full curve] | 0.398 µM [rising, full curve, poor fit] |
| C=CCN1CC[C@]23c4c5ccc(O)c4O[C@@H]2/C(=N/NC(=O)c2ccccc2)CC[C@@]3(O)[C@H]1C5 | 1.26 µM [rising, full curve, poor fit] | 2.51 µM [rising, full curve, poor fit] |
| CCCCn1c(=O)c(C(=O)Nc2nc3ccccc3[nH]2)c(O)c2ccccc21 | 0.0398 µM [falling, full curve] |  |
| COC1=C(C)C(=O)c2c(c(COC(N)=O)c3n2C[C@@H]2[C@@H]3N2C)C1=O (some centres not stated) | 3.98 µM [falling, single point] | 1 µM [rising, partial curve] |
| Cc1cccc(-n2c(/C=C/c3c[nH]c4ccccc34)nc3ccccc3c2=O)c1 | 5.01 µM [falling, partial curve] |  |

| SMILES | AC50 [1] | AC50 [2] |
| --- | --- | --- |
| NS(=O)(=O)c1ccc(N=Cc2c(O)n(C3CCCCC3)c(=O)n(C3CCCCC3)c2=O)cc1 | 10 µM [falling, partial curve] |  |
| CSc1ccc(CN2CCN(C(=O)COc3cccc(C)c3)CC2)cc1 | 39.8 µM [falling, partial curve] |  |
| O=C1NC(=S)NC(=O)C1=Cc1cccc2cc3ccccc3cc12 | 3.98 µM [falling, single point] |  |
| CN(C)P1(N(C)C)=Nc2c(c(N)nn2C)C(c2ccccc2)=N1 | 39.8 µM [falling, partial curve] |  |
| [Cd+2].[Cl-].[Cl-] |  | 0.794 µM [rising, full curve] |
| C[C@@H]1O[C@H](O[C@@H]2C=C3CC[C@H]4[C@@H](CC[C@]5(C)[C@@H](c6ccc(=O)oc6)CC[C@]45O)[C@@]3(C)CC2)[C@@H](O)[C@H](O)[C@@H]1O | 0.1 µM [falling, full curve] |  |
| CCOc1ccc(CN(CCc2ccc3c(c2)OCO3)Cc2cc(OC)ccc2O)cc1 | 15.8 µM [falling, single point] |  |
| Cc1cc(OCC(=O)N2CCN(CCc3ccncc3)CC2)ccc1Cl | 15.8 µM [falling, partial curve] |  |
| CSc1ccc(/C=C/c2nc3ccccc3c(=O)n2-c2cccc(Cl)c2C)cc1 | 25.1 µM [falling, partial curve] |  |
| CCOC(=O)C(O)(c1ccc(NC(=O)c2ccco2)c(OC)c1)C(F)(F)F (configuration not stated) | 12.6 µM [falling, partial curve] |  |
| Cc1cccc(C2=NCC(=O)N(CC(=O)NCc3ccco3)c3sc4c(c32)CCCC4)c1 | 20 µM [falling, partial curve] |  |
| CC(C)[C@@]1(NC(=O)[C@@H]2C[C@H]3c4cccc5[nH]cc(c45)C[C@@H]3N(C)C2)O[C@@]2(O)[C@H]3CCCN3C(=O)[C@H](Cc3ccccc3)N2C1=O | 31.6 µM [falling, partial curve] and 20 µM [falling, partial curve, poor fit] |  |
| Oc1cc(Cl)c(Cl)c(Cl)c1Cl | 3.98 µM [falling, full curve] |  |
| CC(C)Nc1ccc(Nc2ccccc2)cc1 | 12.6 µM [falling, full curve, poor fit] |  |
| COc1ccc(OC)c(C(c2c(O)c3ccccc3oc2=O)c2c(C)n(C)n(-c3ccccc3)c2=O)c1 (configuration not stated) | 1.26 µM [falling, partial curve, poor fit] |  |
| C1=C(c2c[nH]c3ccccc23)CCNC1 | 10 µM [falling, partial curve] |  |
| O=S1(=O)N(Cc2ccccc2)CCCN1Cc1ccc(F)cc1Cl | 39.8 µM [falling, single point] |  |
| Cc1c(C(=O)c2cccc3ccccc23)c2cccc3c2n1[C@H](CN1CCOCC1)CO3 |  | 3.98 µM [rising, full curve, poor fit] |
| CC[C@@H]1CN2CCc3cc(OC)c(OC)cc3[C@H]2C[C@@H]1C[C@@H]1NCCc2cc(O)c(OC)cc21 | 0.0501 µM [falling, full curve] | 0.0631 µM [falling, full curve, poor fit] |

An excerpt of these results, as tab-separated lines:
SMILES	AC50 [1]	AC50 [2]
CN(C)P1(N(C)C)=Nc2c(c(N)nn2C)C(c2ccccc2)=N1	39.8 µM [falling, partial curve]	
[Cd+2].[Cl-].[Cl-]		0.794 µM [rising, full curve]
C[C@@H]1O[C@H](O[C@@H]2C=C3CC[C@H]4[C@@H](CC[C@]5(C)[C@@H](c6ccc(=O)oc6)CC[C@]45O)[C@@]3(C)CC2)[C@@H](O)[C@H](O)[C@@H]1O	0.1 µM [falling, full curve]	
CCOc1ccc(CN(CCc2ccc3c(c2)OCO3)Cc2cc(OC)ccc2O)cc1	15.8 µM [falling, single point]	
